Data source: PubChem BioAssay AID1259425 (University of Nebraska Medical Center, 2018)
In all, the deposit lists about 14,000 reagents; below is a random part of them. Not all columns of the deposit are shown. Not given: the time to read-out.

- Purpose: 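Find knockdowns that reproduce the gene expression pattern seen when KSR1 is lost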 (primary screen)
- Cell system: HCT116 human colon cancer cells
- Reagent: siRNA pool against human genes, 50 nM siRNA
- Read-out: 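After 50 nM siRNA pool, branched-DNA assay measures six marker transcripts per well, minus blank, normalised to the geometric mean of two housekeeping transcripts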
- Scale: BNIP3L mRNA: higher = more BNIP3L transcript after knockdown; NDRG1 mRNA: higher = more NDRG1 transcript after knockdown

CCDC91
- BNIP3L mRNA, set 1: 0.0467
- NDRG1 mRNA, set 1: 0.0975

BMAL1
- BNIP3L mRNA, set 1: 0.0993
- NDRG1 mRNA, set 1: 0.149

TBC1D25
- BNIP3L mRNA, set 1: 0.186
- NDRG1 mRNA, set 1: 0.153

SOX7
- BNIP3L mRNA, set 1: 0.319
- NDRG1 mRNA, set 1: 0.448

PF4
- BNIP3L mRNA, set 1: 0.0727
- NDRG1 mRNA, set 1: 0.509

GNRH2
- BNIP3L mRNA, set 1: 0.109
- NDRG1 mRNA, set 1: 0.13

TKTL2
- BNIP3L mRNA, set 1: 0.222
- NDRG1 mRNA, set 1: 0.216

Next part (2 carried over from the part before).
GNRH2
- BNIP3L mRNA, set 1: 0.109
- NDRG1 mRNA, set 1: 0.13

TKTL2
- BNIP3L mRNA, set 1: 0.222
- NDRG1 mRNA, set 1: 0.216

TMSB4X
- BNIP3L mRNA, set 1: 0.171
- NDRG1 mRNA, set 1: 0.469

CALCB
- BNIP3L mRNA, set 1: 0.13
- NDRG1 mRNA, set 1: 0.194

RNF115
- BNIP3L mRNA, set 1: 0.0887
- NDRG1 mRNA, set 1: 0.308

DNAJC15
- BNIP3L mRNA, set 1: 0.135
- NDRG1 mRNA, set 1: 0.485

COL18A1
- BNIP3L mRNA, set 1: 0.0774
- NDRG1 mRNA, set 1: 0.289
